Results from PMC10452847 (Cancers, 2023).

Tests used:
Ba/F3 TEL-FGFR4 cells [1] = conditions: 1 ng/mL of IL-3 added to medium
[2] = test system: 7250 normal human fibroblast cell line; experiment: cells; conditions: 72 h, read-out: EC50 (viability)
RMS559 cells [3] = conditions: 24 h post-treatment
Ba/F3 TEL-FGFR4 cells [4] = experiment: cells; conditions: Mus musculus, BaF3, read-out: EC50 (cell killing)
RH4 cells [5] = conditions: 24 h post-treatment
RMS559 cells [6] = experiment: cells; conditions: Homo sapiens, 72 h, read-out: EC50 (viability)
RH4 cells [7] = experiment: cells; conditions: Homo sapiens, Rh4, 72 h, read-out: EC50 (viability)
[8] = 25 mg/kg oral gavage, single dose; SCMC tumor-bearing mice
SCMC cells = experiment: cells; conditions: Homo sapiens, 72 h, read-out: EC50 (viability)

C=CC(=O)N1CC[C@H](n2nc(C#Cc3cc(OC)cc(OC)c3)c3c(N)ncnc32)C1 [futibatinib]
effect of IL-3 on killing by futibatinib (Ba/F3 TEL-FGFR4 cells [1]): prevents futibatinib from killing Ba/F3 TEL-FGFR4 cells | EC50 [2]: 32 µM | caspase 3/7 activity compared to DMSO control (RMS559 cells [3]): significant increase | EC50 (Ba/F3 TEL-FGFR4 cells [4]): 0.00133 µM | caspase 3/7 activity compared to DMSO control (RH4 cells [5]): significant increase | EC50 (RMS559 cells [6]): 0.48 µM | EC50 (RH4 cells [7]): 6.64 µM | time at which concentration in plasma peaks [8]: 1 h | EC50 (SCMC cells): 11.7 µM
